From PubChem BioAssay AID2685 (National Center for Advancing Translational Sciences (NCATS), 2010) come the findings set out here.

The AC50 is the concentration giving half of the maximal activity seen.

This is one part of the list. These are further read-outs of the screen, such as a control signal, another cell line or another target. No call is given for them. Compounds called inactive in the main read-out are mostly missing here. Words in brackets tell the shape of the fitted curve; partial curves, single points and poor fits give uncertain potencies.

This experiment in a line: qHTS Assay for Lipid Storage Modulators in Drosophila S3 Cells.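 For cell number change: cells counted by Cell Tracker Red CMTPX staining in the red channel.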 Particulars: BODIPY lipid droplet fluorescence, 18-24 h; for cell number change: measured here: cell count max response, cells fed with added oleic acid. Put shortly:
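Drosophila S3 cells got compounds at several concentrations plus oleic acid (400 uM solution). Laser-scanning cytometry with 488 nm excitation read lipid droplets at 500-530 nm and cells at 575-640 nm. Percent activity was relative to 20 uM Triacsin C.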
Background: In qHTS, concentration-response curves come from the screen itself.

Where [1] appears, read: measured here: lipid fluorescence (Fed channel) AC50, cells fed with added oleic acid.
Setting [2] is: measured here: cell number channel AC50, cells fed with added oleic acid.

Regarding `CCn1c(CSc2nc3ccccc3[nH]2)nc2cc(C(=O)O)ccc21`, the cell number change is -7.36%. The AC50 under setting [1] was 23.1 µM [falling, partial curve].
As to `O=C(CCS(=O)(=O)c1ccccc1)Nc1nccs1`, the cell number change came to 2.15%.
With `O=C(COC(=O)/C=C/c1ccc(OC(F)F)cc1)NC(=O)NCc1ccccc1`, the cell number change is -30.1%. Moreover, the AC50 under setting [2] was 29.1 µM [falling, single point]. Besides, under setting [1], the AC50 was 4.11 µM [falling, full curve, poor fit].
As for `COc1ccc(CN2CCC(C(=O)Nc3ccc(Oc4cccnc4)cc3)CC2)cc1`, the cell number change was -6.51%. In addition, under setting [1], the AC50 was 6.51 µM [rising, single point].
As to `COc1ccc(-n2ncc(C(C)NS(=O)(=O)c3cc(F)ccc3C)c2C)cc1` (stereo unspecified), the concentration at half-maximal activity (AC50) under setting [1] is 29.1 µM [falling, single point].
Regarding `O=[N+]([O-])c1cc(C(F)(F)F)ccc1NCCc1c[nH]c2ccc(O)cc12`, the AC50 under setting [1] was 0.731 µM [falling, full curve].
For the compound `Cn1cc(Cl)c(C(=O)NNC(=S)Nc2cccc(Cl)c2)n1`, the cell number change was determined as 19.4%. Moreover, the AC50 under setting [1] was 29.1 µM [rising, partial curve].
With `CCCCn1c(SCC(=O)c2c(N)n(C3CC3)c(=O)[nH]c2=O)nc2cc(S(N)(=O)=O)ccc21`, the cell number change is -17%.
For the compound `C(=N\Nc1nc2ccccc2[nH]1)/c1ccc2c(c1)OCO2`, the cell number change is -40.7%. Also, under setting [2], the AC50 was 0.651 µM [rising, single point]. Moreover, the AC50 under setting [1] was 29.1 µM [falling, partial curve, poor fit].
For `CCN(CC)c1ccc(CNc2nc3ccccc3n2CCN2CCOCC2)cc1`, the cell number change was -47.2%. The AC50 under setting [1] is 3.98 µM [falling, partial curve, poor fit].
In the case of `O=C(O)CCCNS(=O)(=O)c1ccc2ccccc2c1`, the cell number change turned out to be 0.0443%. Moreover, the AC50 under setting [1] was 0.58 µM [falling, full curve].
In the case of `O=C(Nc1ccccc1)N1CCN(c2ccc(C(F)(F)F)cn2)CC1`, the cell number change is 125%. The AC50 under setting [2] is 29.1 µM [rising, single point]. The AC50 under setting [1] is 29.1 µM [rising, single point].
In the case of `Cc1nnc(SCC(=O)N(C)CC(=O)Nc2ccc(F)cc2)n1Cc1ccccc1`, the cell number change stood at 0.521%.
For `N=c1c(C(=O)NC2CCCCC2)cc2c(=O)n3ccccc3nc2n1CCc1ccccc1`, the cell number change turned out to be 21.8%.
As for `O=C(NC1CCCCCCC1)c1ccc2c(c1)OCO2`, the cell number change is 128%. For the same compound, the AC50 under setting [2] is 2.06 µM [rising, full curve, poor fit].
For `CN(C)CCCNS(=O)(=O)c1cc(Cl)c(Cl)cc1Cl`, the cell number change is 44.4%. For the same compound, the half-maximal activity concentration (AC50) under setting [2] was 4.11 µM [rising, full curve, poor fit]. Further, the AC50 under setting [1] was 5.17 µM [rising, full curve].
Turning to `COc1ccc(/C=C/C(=O)Nc2cc(C)nn2-c2nc3ccccc3n2Cc2cccc([N+](=O)[O-])c2)cc1`, the cell number change is -2.43%. Also, the concentration at half-maximal activity (AC50) under setting [1] was 0.00461 µM [falling, full curve, poor fit].
Take `O=C(Oc1ccc(/C=N/n2cnnc2)cc1)c1cccc([N+](=O)[O-])c1`: the cell number change was -29.1%. Further, under setting [1], the AC50 is 35.5 µM [falling, partial curve, poor fit].
Turning to `COc1ccc(N2CC(C(=O)NCCc3ccc(Cl)cc3)CC2=O)cc1` (stereo unspecified), the cell number change is 2.38%. Besides, under setting [1], the AC50 is 29.1 µM [rising, single point].
In the case of `c1cnc(N2CC[N+]3(CCCC3)CC2)nc1`, the cell number change was -6.48%.
In the case of `c1ccc2c(C3=NNC(=NC4CCCCC4)SC3)c[nH]c2c1`, the cell number change is -20.8%. Also, the AC50 under setting [1] was 5.8 µM [rising, full curve].
`O=c1cc(N2CCOCC2)[nH]c(=O)n1Cc1ccc(F)cc1`: the cell number change was -5.32%. Further, the AC50 under setting [1] is 0.184 µM [falling, full curve, poor fit].
On to `Cc1cc(NC(=O)CSc2nc(CCC3CCCC3)nc3ccccc23)no1`, for which, under setting [2], the AC50 is 2.59 µM [rising, single point].
Consider `O=C(c1ccc(F)c(S(=O)(=O)N2CCOCC2)c1)N(CCc1ccccc1)Cc1ccccc1`, for which the cell number change amounted to 11.5%.
On to `CCOC(=O)c1ccc(-n2c(CN3CCOCC3)nc3ccc([N+](=O)[O-])cc3c2=O)cc1`, for which the concentration at half-maximal activity (AC50) is 0.366 µM [rising, full curve, poor fit] under setting [2] and 0.461 µM [rising, full curve] under setting [1].
With `O=C(CCS(=O)(=O)c1ccc(Br)cc1)NC1CCCC1`, the cell number change is -8.24%. The AC50 under setting [2] is 0.58 µM [falling, full curve].
As for `Cc1ccc(C(=O)CSc2nc3cc(S(=O)(=O)N4CCOCC4)ccc3o2)cc1`, the cell number change is 1.81%.
On to `O=C(COC(=O)C1=COCCO1)Nc1cc(S(=O)(=O)N2CCCCC2)ccc1Cl`, for which the cell number change came out at 46.4%.
In the case of `Cc1ccc(S(=O)(=O)NCC(c2cccnc2)N2CCN(Cc3ccccc3)CC2)cc1` (stereo unspecified), the cell number change stood at 31.4%. Also, the AC50 under setting [2] is 3.66 µM [rising, full curve]. For the same compound, the concentration at half-maximal activity (AC50) under setting [1] is 29.1 µM [rising, single point].
For the compound `CCCCN1CC(=O)N2[C@H]3c4cc(Cl)ccc4OC[C@@H]3[C@H](c3ccccc3)[C@]2(C)C1=O`, the cell number change was -10.7%. Further, the AC50 under setting [1] is 0.13 µM [rising, single point].
On to `COc1ccc(/C=C/C(=O)OCC(=O)Nc2cc(S(=O)(=O)N(C)C)ccc2Cl)cc1`, for which the cell number change is 84.5%.
On to `CC1=C(c2ccccc2)C(=S)NC(C)(C)C1`, for which the cell number change was -41.5%. Also, the AC50 under setting [2] was 16.4 µM [falling, single point].
Consider `Cc1cccc(N(Cc2cc3ccccc3[nH]c2=O)C(=O)c2cccs2)c1`, for which the cell number change was -29.3%. Besides, the AC50 under setting [1] was 16.4 µM [falling, single point].
Take `CCOC(=O)CS(=O)(=O)c1ccc(C(F)(F)F)cn1`: the cell number change was -18.6%. Moreover, the AC50 under setting [2] was 0.116 µM [falling, full curve, poor fit]. Moreover, under setting [1], the half-maximal activity concentration (AC50) is 23.1 µM [falling, partial curve].
For `CC(=O)c1ccc(-c2ccc(C(=O)Nc3nc(C)c(C(C)=O)s3)o2)cc1`, the cell number change is -0.627%. The concentration at half-maximal activity (AC50) under setting [1] was 29.1 µM [rising, single point].
With `O=C(c1ccccc1)c1ccc(-c2ccc(O)cc2)cc1`, the cell number change was -7.27%. Also, the AC50 under setting [1] is 2.06 µM [falling, single point].
Regarding `COc1ccc(-c2nnc(NC(=O)Cc3ccccc3)o2)cc1`, the cell number change is 61.3%. The AC50 under setting [2] is 29.1 µM [rising, single point]. The concentration at half-maximal activity (AC50) under setting [1] was 0.58 µM [rising, single point].
In the case of `CCN1CCN(c2cc(C)c3cc(NC(=O)c4ccccc4F)ccc3n2)CC1`, the AC50 reads like this: under setting [2], 2.59 µM [rising, partial curve]; under setting [1], 4.61 µM [rising, partial curve].
